For part of these data: Expression grades refer to the transcript from which the peptide derives; gene names, where given, were looked up from the sequence.
Experiments:
NHL samples = experiment: Identification and label-free LC-MS quantitation of HLA-presented peptides: presentation profile/score, NHL vs normal tissues; design: species or system human; key: very highly over-presented on tumors compared to a panel of normal tissues (+++); highly over-presented on tumors compared to a panel of normal tissues (++); over-presented on tumors compared to a panel of normal tissues (+); settings: NHL tumors compared to a panel of normal tissues
source gene mRNA = experiment: RNAseq expression profiling of source genes, NHL vs normal tissues (expression scores); design: species or system human; key: very highly over-expressed in tumors compared to a panel of normal tissues (+++); highly over-expressed in tumors compared to a panel of normal tissues (++); over-expressed in tumors compared to a panel of normal tissues (+); settings: source gene over-expression in tumors compared to a panel of normal tissues
[1] = tested on: other tumor types (tumor samples vs normal tissues); experiment: LC-MS detection / over-presentation of peptides on additional tumor types; design: species or system human; settings: for Other relevant organs/diseases: additional tumor types on which the peptide was found: over-presented on more than 5% of measured tumor samples, or presented on more than 5% with ratio of geometric means tumor vs normal tissues larger than 3; for Other relevant organs / diseases (additional tumor types with over-presentation): over-presented on >5% of measured tumor samples, or presented on >5% with ratio of geometric means tumor vs normal >3

Substance | Peptide Presentation (NHL samples) | Gene Expression (expression score) (source gene mRNA) | Other relevant organs/diseases [1] | Other relevant organs / diseases (additional tumor types with over-presentation) [1]
268: peptide found in MAP4K1 (gene looked up) (VLFPLPTPL; listed as Homo sapiens) [compound 268] | +++ | + | CLL | AML
61: peptide found in DNMT1 (gene looked up) (SLLNKDLSL; listed as Homo sapiens) [compound 61] | + | + | Uterine Cancer | Esophageal Cancer, AML, HNSCC
133: peptide found in MKI67 (gene looked up) (ALEELTGFREL; listed as Homo sapiens) [compound 133] | +++ | + | Esophageal Cancer | 
91: peptide found in TIGIT (gene looked up) (HLSSTTAQV; listed as Homo sapiens) [compound 91] | +++ | ++ |  | 
229: peptide found in PARP1 (gene looked up) (ILSPWGAEV; listed as Homo sapiens) [compound 229] |  | ++ | CLL, AML, Melanoma, Urinary bladder cancer | 
238: peptide found in CR2 (gene looked up) (YQYGAVVTL; listed as Homo sapiens) [compound 238] |  | ++ | CLL | 
260: peptide found in DUSP2 (gene looked up) (RLDEAFDFV; listed as Homo sapiens) [compound 260] | ++ | ++ | Melanoma, Urinary bladder cancer, Uterine Cancer | RCC, CLL
158: peptide found in TAS1R3 (gene looked up) (KVQDVLHQV; listed as Homo sapiens) [compound 158] | +++ | +++ |  | 
43: peptide found in KDM2B (gene looked up) (ALLEGVKNV; listed as Homo sapiens) [compound 43] | + | + | CLL, Melanoma, OC | SCLC, BRCA
266 (QLTEMLPSI; listed as Homo sapiens) [compound 266] | +++ |  | SCLC, HCC, Melanoma, Gallbladder Cancer, Bile Duct Cancer | 
105 (VLTPVILQV; listed as Homo sapiens) [compound 105] | +++ |  | CLL, AML | 
40 (FLNSVIVDL; listed as Homo sapiens) [compound 40] | + |  | CLL, Melanoma, Urinary bladder cancer | 
54 (DIFDAMFSV; listed as Homo sapiens) [compound 54] | +++ |  |  | CLL
79 (AMKEEKEQL; listed as Homo sapiens) [compound 79] | +++ |  | AML | 
264 (ILTGTPPGV; listed as Homo sapiens) [compound 264] | +++ |  | BRCA | 
220 (FLAEAPTAL; listed as Homo sapiens) [compound 220] | ++ |  |  | AML
277 (FLIDLNSTHGTFL; listed as Homo sapiens) [compound 277] | + |  | CLL | 
232 (KVMEGTVAA; listed as Homo sapiens) [compound 232] | ++ |  | CLL | 
255 (GMWNPNAPVFL; listed as Homo sapiens) [compound 255] | +++ |  | HCC, CLL, Uterine Cancer | HNSCC

From patent publication US10702592B2, “Peptides and combination of peptides for use in immunotherapy against NHL and other cancers” (Immatics Biotechnologies GmbH, priority 2016, dated 2020)
